PubChem BioAssay AID256 (DTP/NCI, 2004)
The list is a part of this screen's results and no random one: it is rich in T/C values a quarter to a half above the control, in often repeated tests (any T/C) and in doses without a T/C. Further doses and runs are listed elsewhere. T/C is the treated group as % of the vehicle group. Some entries give survivors of the animals treated and no T/C: the source files T/C as zero there, which appears to mark a toxic dose or a test without result, not a measured value. Some doses without a T/C left all or most animals alive at the check, yet need not have been tolerated: the source hardly ever lists a survival T/C far under the control, and the zero likely stands for such cases as well. Counts of survivors are from the toxicity check (mostly the fifth day) where no day follows; animals may have died later. Schedule codes are those of the source, read here as Q, the interval in days (D) or hours (H), X, the number of doses. Some schedule codes hold Z or #, which are not explained here. For survival time, this PubChem deposit counts one and a half times the control or more as active, and values a quarter to a half above the control carry no call in these data; other NCI protocols may use other cut-offs. Some doses were run more than once; the results are listed from low to high. Some T/C values carry the count of animals alive at the toxicity check (mostly the fifth day); without a count, all were alive then.

System: CD2F1 mice, L1210 leukemia ip, survival T/C
Test: NCI In Vivo Anticancer Drug Screen. Data for tumor model L1210 Leukemia (intraperitoneal) in CD2F1 (CDF1) mice
Settings: T/C endpoint: mean survival time, higher T/C = longer survival
Description: The antitumor activity of compounds was measured in mice bearing transplantable tumors. Survival or tumor size were measured and the results are expressed as the measurement made in the treated group (T) divided by the measurement made in the vehicle treated control group (C). The tumor model used in this assay is L1210 Leukemia (intraperitoneal) in CD2F1 (CDF1) mice

[1] = dose: 200.0 mg/kg/injection, schedule: Q04DX003 (ip), vehicle: saline with Tween-80
[2] = dose: 400.0 mg/kg/injection, schedule: Q04DX003 (ip), vehicle: saline with Tween-80

**Q.** What does the source list for N#CCCN(N=O)C(=O)Nc1ccccc1?
**A.** T/C (dose: 25.0 mg/kg/injection, schedule: Q01DX Z (ip), vehicle: carboxymethylcellulose (CMC)): 125 % of control; T/C (dose: 50.0 mg/kg/injection, schedule: Q01DX Z (ip), vehicle: carboxymethylcellulose (CMC)): 143 % of control; survivor count (dose: 150.0 mg/kg/injection, schedule: Q01DX Z (ip), vehicle: carboxymethylcellulose (CMC)): 0 of 6

**Q.** With CCCCCCCCCCCCCCCCCCOc1ccc(Cl)cc1 as the molecule, how does the survivor count (dose: 400.0 mg/kg/injection, schedule: Q04DX002 (ip), vehicle: saline with Tween-80) read?
**A.** 3 of 3

**Q.** With CCn1cnc(-c2ccccc2)c1-c1ccccc1 as the molecule, how does the survivor count [1] read?
**A.** 6 of 6

**Q.** And the survivor count [2]?
**A.** 6 of 6

**Q.** What does the source list for CC(NCCN(C)C)C1CCC2C3CCC4CC(O)CCC4(C)C3CCC12C (centres undefined)?
**A.** survivor count (dose: 100.0 mg/kg/injection, schedule: Q04DX003 (ip), vehicle: saline with Tween-80): 4 of 6; survivor count [1]: 0 of 6; survivor count [2]: 0 of 6

**Q.** CC(C)CC(NC(=O)C(Cc1c[nH]c2ccccc12)NC(=O)OC(C)(C)C)C(=O)NN (centres undefined) was tested. Which T/C (dose: 200.0 mg/kg/injection, schedule: Q01DX009 (ip), vehicle: saline) did it give?
**A.** 142 % of control [5 of 6 alive]

**Q.** CC(CCl)C(C#N)(c1ccccc1)c1ccccc1 (centres undefined) was tested. Which survivor count [2] did it give?
**A.** 6 of 6

**Q.** How did the T/C (dose: 0.38 mg/kg/injection, schedule: Q01DX009 (ip), vehicle: distilled water + Tween-80) turn out when CCCCOC(=O)CCC(NC(=O)c1ccc(N(C)Cc2cnc3nc(N)nc(N)c3n2)cc1)C(=O)OCCCC (centres undefined) was run?
**A.** 125 and 126 % of control

**Q.** And the T/C (dose: 0.75 mg/kg/injection, schedule: Q01DX009 (ip), vehicle: distilled water + Tween-80)?
**A.** 125 % of control

**Q.** What about the T/C (dose: 1.5 mg/kg/injection, schedule: Q01DX009 (ip), vehicle: distilled water + Tween-80) of the same molecule?
**A.** 132 % of control

**Q.** And the survivor count (dose: 3.0 mg/kg/injection, schedule: Q01DX009 (ip), vehicle: distilled water + Tween-80)?
**A.** 6 of 6

**Q.** And the survivor count (dose: 6.0 mg/kg/injection, schedule: Q01DX009 (ip), vehicle: distilled water + Tween-80)?
**A.** 6 of 6

**Q.** What about the survivor count (dose: 12.0 mg/kg/injection, schedule: Q01DX009 (ip), vehicle: distilled water + Tween-80) of the same molecule?
**A.** 5 of 6

**Q.** How did the T/C (dose: 400.0 mg/kg/injection, schedule: Q01DX001 (ip), vehicle: saline with Tween-80) turn out when CC(CC(=O)O)[Se][Se]C(C)CC(=O)O (centres undefined) was run?
**A.** 126 % of control [2 of 3 alive]

**Q.** CCOC(=O)NOP(=O)(N1CC1)N1CC1 was tested. Which T/C (dose: 25.0 mg/kg/injection, schedule: Q04DX002 (ip), vehicle: saline with Tween-80) did it give?
**A.** 128 % of control
